Laboratory results from patent publication US8349801B2 (priority 2006, dated 2013).

Assay: general procedure: Fmoc solid-phase peptide synthesis
Conditions: RP-HPLC, TFA salt, P33_V exchanged to acetate salt

| Sequence | final HPLC purity (oxidative folding step, one disulfide bridge) [%] | final HPLC purity (whole synthesis) [%] |
| --- | --- | --- |
| SMCHRWSRAVLFPAAHRP [P33_dimer] (dimer via cysteine; listed as Homo sapiens) | 95 | – |
| SMCHRWSRAVLFPAAHRP [P33_mono] | – | 95 |
